Results of single-concentration screens

The values are deposited in ChEMBL (CHEMBL3988442, “University of Dundee, Small-Polar-MMV Screening Library” (2021)).

Each number is a percent effect as filed. The record does not define 0% and 100%; most values in the screen are far below 50% and negative numbers occur (in some assays of this library far below -100). The compounds are a random part of those screened.

T. brucei: 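Whole-parasite assay of Trypanosoma brucei over 72 hours; the read-out is not stated. Compounds at 30 µM. The record gives no direction; compounds that gave an IC50 in retests scored well above the rest, so higher reads as stronger inhibition. Values scatter widely below zero; nearly all retest evidence comes from the higher of the two concentrations used. Size under these conditions: about 64,000 compounds, about 940 of them at 50% or above in at least one test.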
Toxoplasma: 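Assay of Toxoplasma gondii numbers, read through their beta-galactosidase reporter with a colour substrate. Concentration: 10 µM. The record gives no direction; the compounds picked for IC50 retests had high values, so higher reads as fewer parasites. About 67,000 compounds were tested under these conditions; 0.38% (about 260) showed 50% or more at least once.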

O=C(O)C(F)(F)F.O=C(O)C(F)(F)F.[H][C@@]12CCN(CC(=O)N(C)C)[C@@]1([H])CCN2Cc1cc(C)c(C)o1 read T. brucei: -23.89%; Toxoplasma: -21.19%. Result for O=C(c1cc(C2CC2)nc2onc(-c3ccccc3)c12)N1CC[C@H](O)C1 was T. brucei: -29.87%; Toxoplasma: -16.22%. For COC(=O)CCCNC(=O)c1cc(COc2cncc(Cl)c2)on1 the result was T. brucei: -22.61%; Toxoplasma: -7.615%. CC(C)NC(=O)C1CCc2nnc(C(C)(C)C)n21 (stereo not shown) gave Toxoplasma: 1.279%. Cl.Cn1ccnc1N1CCN(C(=O)Cc2ccc(Cl)cc2)CC1 read T. brucei: 0.1808%; Toxoplasma: 2.93%.

O=C(O)C(F)(F)F.O=S(=O)(N[C@@H]1CCO[C@]2(CCN(CC3CCOCC3)C2)C1)C1CC1 gave T. brucei: -7.405%; Toxoplasma: -8.393%. Result for Cc1nnc2n1CCN(C(=O)c1ccnc(N(C)C)c1)C2 was T. brucei: -20.22%; Toxoplasma: 12.71%. With O=C(O)C(F)(F)F.O=C(O)C(F)(F)F.c1cnn(Cc2cnc3n2CCN(CC2CCCCC2)C3)c1 the screen gave T. brucei: -14.82%; Toxoplasma: 12.88%. With CCc1nsc(N2CCCN(C(=O)c3ccc(CC)o3)CC2)n1 the screen gave T. brucei: -12.05%; Toxoplasma: 1.018%. Result for CC(C)CCN1CCC2(CNS(=O)(=O)c3cccnc3O2)C1 (stereo not shown) was Toxoplasma: 24.22%.

Result for CCOC(=O)c1n[nH]cc1-c1cncn1CC(C)n1nc(C)cc1C (stereo not shown) was T. brucei: -8.717%; Toxoplasma: 13.41%. Result for CC(CO)NC(=O)Nc1ccc(S(C)(=O)=O)nc1 (stereo not shown) was Toxoplasma: 2.319%. O=C1OCCCN1Cc1nc(-c2ccc(N3CCCCC3)cc2)no1 gave T. brucei: -12.53%; Toxoplasma: -8.514%. With Cc1ccccc1C(=O)N1CCC2(CC1)CC(c1cnn(C)c1)CO2 (stereo not shown) the screen gave T. brucei: -348.5%; Toxoplasma: -42.4%. For CCN(Cc1ccco1)C(=O)Nc1cc(C(F)(F)F)c[nH]c1=O the result was T. brucei: 5.45%; Toxoplasma: -5.085%.

With COc1cnc(CSc2nnc(C)s2)cc1OCC(=O)NC1CCCC1 the screen gave T. brucei: -12.9%; Toxoplasma: 18.14%. Cc1nn(C)c(C)c1-c1ccc(=O)n(C(C)C(=O)NC(C)(C)C)n1 (stereo not shown) read T. brucei: -9.733%; Toxoplasma: 22.18%. Cc1cnn(CC(C)NCc2ccc(OCc3nccn3C)cc2)c1 (stereo not shown) read T. brucei: -5.787%; Toxoplasma: 2.56%. Result for Cc1cc(C(F)(F)F)n2nc(C3CCN(S(C)(=O)=O)CC3)cc2n1 was T. brucei: -2.037%; Toxoplasma: -2.293%. With COc1cccc(CNCCc2cccc(C(N)=O)c2)c1 the screen gave T. brucei: -34.29%; Toxoplasma: 1.768%.

Result for Cc1ccccc1CSc1nc(N)cc(N2CCOCC(CO)C2)n1 (stereo not shown) was T. brucei: -17.95%; Toxoplasma: 5.023%. Result for Cc1cc(C)cc(OCC(=O)NC2CCN(S(C)(=O)=O)CC2)c1 was T. brucei: -10.93%; Toxoplasma: -30.59%. Result for [H][C@]12CC[C@@]3(N=C(CC)NC3=O)[C@@]1([H])CN(C(=O)NCC1CCCCC1)C2 was T. brucei: 34.33%; Toxoplasma: -13.59%. Result for CN(C)S(=O)(=O)NCC1(c2ccccc2Br)CC1 was T. brucei: -21.85%; Toxoplasma: -2.17%. CCOCCCNC(=O)c1ccccc1S(C)(=O)=O read T. brucei: 13.42%; Toxoplasma: -0.4525%.

CCOC(=O)CCNC(=O)c1cc(Cl)cc2cccnc12 gave T. brucei: -28.73%; Toxoplasma: 1.16%. CN1CC(NC(=O)CCCc2cc(Cl)sc2Cl)CCC1=O (stereo not shown) read T. brucei: -48.97%; Toxoplasma: 6.195%. COCCN1CC(=O)c2sc(NC(C)C)nc2C1 read T. brucei: -24.29%; Toxoplasma: 0%. O=S1(=O)CCC(N(Cc2nc3ccccc3o2)Cc2cccs2)C1 (stereo not shown) gave T. brucei: 4.226%; Toxoplasma: 34.86%. CC(C)CCC(=O)Nc1ncn(CC(=O)N2CCCCCC2)n1 read T. brucei: -16.57%; Toxoplasma: 3.974%.

Result for CCc1cnc(N)nc1N1CCN(C(C)=O)CC1 was Toxoplasma: -8.959%. Result for CCc1n[nH]c(C2CN(Cc3csc(C4CCCC4)n3)CCO2)n1 (stereo not shown) was T. brucei: -148.5%; Toxoplasma: 0.1193%. For Nc1ncccc1CN1CCOCC1CC(=O)NCc1ccccn1 (stereo not shown) the result was T. brucei: -11.88%; Toxoplasma: 5.766%. With N[C@@H]1CC[C@H](C(=O)NCCn2cc(Cl)cn2)C1 the screen gave Toxoplasma: -6.464%.

Repeated from the top, 4 entries:

{"compound": "O=C(O)C(F)(F)F.O=C(O)C(F)(F)F.[H][C@@]12CCN(CC(=O)N(C)C)[C@@]1([H])CCN2Cc1cc(C)c(C)o1", "T. brucei": -23.89, "Toxoplasma": -21.19}
{"compound": "O=C(c1cc(C2CC2)nc2onc(-c3ccccc3)c12)N1CC[C@H](O)C1", "T. brucei": -29.87, "Toxoplasma": -16.22}
{"compound": "COC(=O)CCCNC(=O)c1cc(COc2cncc(Cl)c2)on1", "T. brucei": -22.61, "Toxoplasma": -7.615}
{"compound": "CC(C)NC(=O)C1CCc2nnc(C(C)(C)C)n21", "stereo": "stereo not shown", "Toxoplasma": 1.279}